Earlier results as cited in US20060122174A1, “Antiviral treatment” (Henderson Morley Research & Development Limited, priority 2001, published 2006).

Test system: plasma proteins, mainly albumin
Details: cited from earlier work

NS(=O)(=O)c1cc(C(=O)O)c(NCc2ccco2)cc1Cl [frusemide, 4-chloro-N-furfuryl-5-sulfamoylanthranilic acid]
unbound fraction (at therapeutic concentrations): 2.3-4.1% | bound to plasma proteins (plasma concentrations ranging from 1 to 400 mcg/ml, healthy individuals): 91-99%
